According to the supplement of paper PMC11348887:
Structures can show the parent of a compound that is named as a salt. ± gives the standard deviation of the averaged measurements. Some of the results follow. Most entries show no effect beyond the scatter of the controls.

How the values were obtained:
Conditions in all cases: 5 µM; treatment: days 7-14 after plating, readout day 21
[1] = tested on: hPSC-derived cortical neurons (WA09); experiment: nucleus area z-score vs screen plate; higher = larger nuclei (more mature)
[2] = tested on: hPSC-derived cortical neurons (WA09); experiment: total neurite length per nucleus (MAP2) z-score; higher = more neurite growth
[3] = tested on: hPSC-derived cortical neurons (WA09); experiment: nucleus roundness z-score vs screen plate; higher = rounder nuclei (more mature)
[4] = tested on: hPSC-derived cortical neurons (WA09); experiment: KCl-induced FOS+/EGR-1+ double-positive nuclei fraction z-score (KCl minus unstimulated); higher = stronger activity-induced IEG response

Structure (SMILES)	nucleus area z-score [1]	total neurite length per nucleus (z-score) [2]	nucleus roundness z-score [3]	KCl-induced FOS+/EGR-1+ double-positive nuclei fraction z-score [4]
O=C(NC1CCN(CCCCC2(C(=O)NCC(F)(F)F)c3ccccc3-c3ccccc32)CC1)c1ccccc1-c1ccc(C(F)(F)F)cc1 [Lomitapide Mesylate]	-12.1	-4.31	-4.72	-0.336
Cc1cc(NC(=O)c2cccc(NC(=O)/C=C/CN(C)C)c2)ccc1Nc1nccc(-c2cccnc2)n1	-1.59	-1.66	3.72	0.358
Cc1ccc(C(=O)N(CCCN)[C@@H](c2oc3cc(Cl)ccc3c(=O)c2Cc2ccccc2)C(C)C)cc1	-16.4	-6.62	-11.1	-0.683
Cc1ccc(Nc2c(F)cccc2Cl)c(CC(=O)O)c1 [Lumiracoxib]	1.65	-0.069	1.55	1.67
O=C(O)CC[C@@H](O)C(=O)O [Disodium (R)-2-Hydroxyglutarate]	1.33	0.32	0.56	0.506
CC1(C)S[C@@H]2[C@H](NC(=O)[C@H](N)c3ccccc3)C(=O)N2[C@H]1C(=O)O [Ampicillin sodium]	1.15	-1.38	-1.24	0.813
CCCCNc1ncc(C(=O)NCc2ccc(-n3ccnc3)cc2)c(NC2CCC(O)CC2)n1 (stereo not given)	-0.61	0.154	0.012	-1.72
CCC(C)(C)C(=O)O[C@H]1C[C@@H](C)C=C2C=C[C@H](C)[C@H](CC[C@@H]3C[C@@H](O)CC(=O)O3)[C@H]21 [Simvastatin]	-1.12	-0.957	-0.00856	-2.96
CO[C@H]1C[C@@H]2CC[C@@H](C)[C@@](O)(O2)C(=O)C(=O)N2CCCC[C@H]2C(=O)O[C@H]([C@H](C)C[C@@H]2CC[C@@H](O)[C@H](OC)C2)CC(=O)[C@H](C)/C=C(\C)[C@@H](O)[C@@H](OC)C(=O)[C@H](C)C[C@H](C)/C=C/C=C/C=C/1C [Rapamycin (Sirolimus)]	-2.1	-1.02	-2.21	-0.724
CN1CCC[C@@H]1Cc1c[nH]c2ccc(CCS(=O)(=O)c3ccccc3)cc12 [Eletriptan HBr]	-2.68	1.3	-0.219	1.57
O=c1ccc2ccccc2o1 [Coumarin]	0.141	-0.266	-0.0178	0.0684
CCn1cc(C(=O)O)c(=O)c2ccc(C)nc21 [Nalidixic acid]	-0.521	1.08	0.78	0.584
CN(C)C(=O)COC(=O)Cc1ccc(OC(=O)c2ccc(NC(=N)N)cc2)cc1 [Camostat Mesilate]	0.921	0.348	0.00646	2.42
O=C(Nc1ccccc1Br)N[C@@H]1CCN(c2ccc(C(F)(F)F)cn2)C1	-0.178	0.208	0.893	0.515
CC1(O)CCC(C(C)(C)O)CC1 (stereo not given) [Terpin hydrate]	-0.0854	-0.536	-0.0712	0.567
c1nc2c(NC3CCCCC3)nc(Nc3ccc(N4CCOCC4)cc3)nc2[nH]1 [Reversine]	0.516	0.401	-1.58	-0.685
CN(C)CCc1c[nH]c2ccc(CS(=O)(=O)N3CCCC3)cc12 [Almotriptan Malate]	-1.02	0.0619	0.672	0.234
COc1ccc(-c2cnc3c(-c4cccc5ncccc45)cnn3c2)cc1	0.452	2.74	-0.284	0.495
CC(=O)OCOC(=O)CN(CC(=O)OCOC(C)=O)c1ccccc1OCCOc1ccccc1N(CC(=O)OCOC(C)=O)CC(=O)OCOC(C)=O	-0.18	1.45	0.625	0.488
Cn1ncnc1[C@H]1c2n[nH]c(=O)c3cc(F)cc(c23)N[C@@H]1c1ccc(F)cc1	-0.529	-0.157	0.493	-0.381
CC1(C)CCC2=C(O1)c1ccccc1C(=O)C2=O [Beta-Lapachone]	-10.8	-3.64	-7.3	-0.893
CC1(C)CCC(C)(C)c2cc(NC(=O)c3ccc(C(=O)O)cc3)ccc21 [Tamibarotene]	1.27	-0.392	-0.318	0.144
C=CC(=O)Nc1cccc(Oc2nc(Nc3ccc(N4CCN(C)CC4)cc3)nc3ccsc23)c1	-3.09	-1.43	-1.86	-0.844
O=C1c2ccc(Nc3ccc(F)cc3F)cc2CCc2ccc(OC[C@H](O)CO)cc21 [Skepinone-L]	0.777	-0.179	0.656	-0.107
N#Cc1c(O)c2c(-c3ccc(-c4ccccc4O)cc3)csc2[nH]c1=O	-0.0955	0.618	0.484	0.802
O=C(O)c1ccc(-n2nc(-c3ccccc3O)nc2-c2ccccc2O)cc1 [Deferasirox]	-0.623	1.78	1.3	2.49
CN1CCN(C(=O)/C=C/c2ccc([N+](=O)[O-])o2)CC1	-1.33	-1.25	-0.925	-1.69
N#C[C@@H]1C[C@@H]2C[C@@H]2N1C(=O)[C@@H](N)C12CC3CC(CC(O)(C3)C1)C2 [Saxagliptin hydrate]	-0.216	-0.0145	0.451	0.619

A draw from above in order of formula weight, high to low.
Structure (SMILES)	nucleus area z-score [1]	total neurite length per nucleus (z-score) [2]	nucleus roundness z-score [3]	KCl-induced FOS+/EGR-1+ double-positive nuclei fraction z-score [4]
O=C(NC1CCN(CCCCC2(C(=O)NCC(F)(F)F)c3ccccc3-c3ccccc32)CC1)c1ccccc1-c1ccc(C(F)(F)F)cc1 [Lomitapide Mesylate]	-12.1	-4.31	-4.72	-0.336
Cc1cc(NC(=O)c2cccc(NC(=O)/C=C/CN(C)C)c2)ccc1Nc1nccc(-c2cccnc2)n1	-1.59	-1.66	3.72	0.358
N#Cc1c(O)c2c(-c3ccc(-c4ccccc4O)cc3)csc2[nH]c1=O	-0.0955	0.618	0.484	0.802
CN(C)CCc1c[nH]c2ccc(CS(=O)(=O)N3CCCC3)cc12 [Almotriptan Malate]	-1.02	0.0619	0.672	0.234

The listing continues:

Structure (SMILES)	nucleus area z-score [1]	total neurite length per nucleus (z-score) [2]	nucleus roundness z-score [3]	KCl-induced FOS+/EGR-1+ double-positive nuclei fraction z-score [4]
CCOC(=O)CCNc1cc(N2CCc3ccccc3CC2)nc(-c2ccccn2)n1	-0.423	0.133	-1.37	0.272
CS(=O)(=O)N1CCN(Cc2cc3nc(-c4cccc5[nH]ncc45)nc(N4CCOCC4)c3s2)CC1	-0.826	0.105	0.661	0.323
O=C(O)c1cc(/N=N/c2ccc(O)c(C(=O)O)c2)ccc1O [Olsalazine Sodium]	0.872	-0.387	-0.0303	0.214
NC[C@@H]1O[C@H](O[C@H]2[C@@H](O)[C@H](O[C@@H]3[C@@H](O)[C@H](N)C[C@H](N)[C@H]3O[C@H]3O[C@H](CO)[C@@H](O)[C@H](O)[C@H]3N)O[C@@H]2CO)[C@H](N)[C@@H](O)[C@@H]1O [Paromomycin Sulfate]	0.943	-0.684	-1.08	1.39
c1cc(CN2CCCNCCNCCCNCC2)ccc1CN1CCCNCCNCCCNCC1 [Plerixafor 8HCl (AMD3100 8HCl)]	1.61	0.735	0.122	0.619
COc1cc(F)c(F)c(Nc2ccc(I)cc2F)c1NS(=O)(=O)C1(C[C@H](O)CO)CC1 [Refametinib (RDEA119_ Bay 86-9766)]	-0.0867	-0.479	-0.479	-1.05
CCN(C(=O)c1c(O)c2c(Cl)cccc2n(C)c1=O)c1ccccc1 [Laquinimod]	1.12	0.222	-0.0275	0.272
CCOC(=O)NCCCC(=O)NCCc1ccccc1	-0.754	1.36	0.757	1.25
O=C(O)Cc1cc(I)c(Oc2ccc(O)c(I)c2)c(I)c1 [Tiratricol]	0.462 ± 0.8	0.31 ± 0.44	0.52 ± 0.62	-0.534 ± 0.83
COc1cc2nccc(Oc3ccc(NC(=O)NC4CC4)c(Cl)c3)c2cc1C(N)=O [Lenvatinib (E7080)]	0.315	0.229	0.0686	-0.145
Cc1ncc(CCCN(C)C)cc1Nc1ncc2c(n1)-c1ccc(C(F)(F)F)cc1NC(=S)C2	-2.01	0.598	0.942	-0.872
COCCCN1CCC(NC(=O)c2cc(Cl)c(N)c3c2OCC3)CC1 [Prucalopride]	-0.146	0.299	0.559	1.2
COc1ccc(CCCOC(Cn2ccnc2)c2ccc(OC)cc2)cc1 (stereo not given)	-1.61	-0.475	-0.655	-0.962
CCN(CC)CCNC(=O)c1ccc(N)cc1 [Procainamide HCl]	-0.277	0.619	0.0739	-0.0244
C=C[C@]1(C)C[C@@H](OC(=O)CS[C@@H]2C[C@H]3CC[C@@H](C2)N3C)[C@]2(C)[C@H](C)CC[C@]3(CCC(=O)[C@H]32)[C@@H](C)[C@@H]1O [Retapamulin]	-0.586	0.489	0.102	1.01
COc1ccc2c(c1)CCC1C2CCC2(C)C(NCCCCCCN3C(=O)C=CC3=O)CCC12 (stereo not given)	2.19	-0.581	0.499	-0.271
Nc1ccc2ncnc(NCCc3ccc(Oc4ccccc4)cc3)c2c1	0.428	0.366	-0.704	-0.18
Cc1cc(CN2CCN(c3c(Br)cnc4nc(-c5ccc(N6CCN(C)CC6)cc5)[nH]c34)CC2)no1	-11	-4.56	-1.31	-0.8
CC(C)(C)c1ccc(C(=O)CCCN2CCC(OC(c3ccccc3)c3ccccc3)CC2)cc1 [Ebastine]	1.49	-2.91	-7.06	-0.0984
O=C(CNc1ccc2ccccc2c1)N/N=C/c1cc(Br)c(O)c(Br)c1O	2.68	-0.0731	0.0663	-0.443
COc1ccc(Cl)c(Nc2nc3ccccc3nc2NS(=O)(=O)c2cccc(NC(=O)C(C)(C)N)c2)c1 [Pilaralisib (XL147)]	-0.171	0.0939	0.817	0.549
COC(=O)C1=C(C)NC(C)=C(C(=O)OCC(C)C)C1c1ccccc1[N+](=O)[O-] (stereo not given) [Nisoldipine]	-1.8	-1.3	-0.387	-0.0564
C[C@H](NC(=O)Cc1cc(F)cc(F)c1)C(=O)N[C@@H]1C(=O)N(C)c2ccccc2-c2ccccc21	0.791	0.201	0.00915	1.08
FC(F)(F)Oc1ccc2nc(-c3ccc(OCCOCCOc4ccc(-c5nc6ccc(OC(F)(F)F)cc6[nH]5)nc4)cn3)[nH]c2c1	-4.84	-1.4	-0.682	-1.34
COC(=O)N[C@H](C(=O)N[C@@H](Cc1ccccc1)[C@@H](O)CN(Cc1ccc(-c2ccccn2)cc1)NC(=O)[C@@H](NC(=O)OC)C(C)(C)C)C(C)(C)C [Atazanavir]	-0.0159	0.146	0.0671	-0.174
COCCOc1nc(-c2ccc(Cl)c(Cl)c2)n(-c2ccc(NC(=O)CCl)cc2)n1 [MI-2 (MALT1 inhibitor)]	-4.32	-2.28	-4.14	1.29
Nc1ncnc2c1ncn2[C@@H]1O[C@H](CO)[C@@H](O)[C@@H]1O [Vidarabine]	-0.29	2.13	0.665	1.98
